In PubChem BioAssay AID504834 (National Center for Advancing Translational Sciences (NCATS), 2011):
Values joined by “and” are separate entries in the source; they are usually repeats but may differ in a detail not shown here. Identical values can stand only once. About 22,000 (6.9%) of roughly 320,000 compounds were called active. The shares of active, inactive and inconclusive entries below differ from those in the screen. Calls come from the whole dose curve; as a rule, active = well fitted inhibition curve with a large enough effect; inconclusive = small, poorly fitted or top-dose-only effect, or another doubt; inactive = no such curve, though single readings can be large or run the other way. Potencies of inconclusive entries are doubtful fits and often do not repeat.

Experiment: Primary qHTS for delayed death inhibitors of the malarial parasite plastid, 96 hour incubation
Details: P. falciparum luciferase reporter growth; series mostly up to 28.7 µM; activity change, negative = inhibition: at the top concentration
How it was run: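 P. falciparum expressing integrated firefly luciferase grown in erythrocytes (2% hematocrit, 0.05% parasitemia final) with compounds for 96 hours at 37 C, 5% CO2. Growth inhibition read as loss of luminescence after adding luciferase detection reagent.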
% is set by controls: 0 for no effect and ±100 for the full control effect; potency is the fitted concentration of half-maximal effect.

SMILES	Potency	activity change, negative = inhibition
Cc1ccccc1NC(=O)N1CCCC1C(=O)NCc1ccccc1 (configuration not stated)	inconclusive: 18.5 µM [inhibitor, single point]	–
O=C1C2(Cl)C3(Cl)C4(Cl)C(Cl)(Cl)C5(Cl)C3(Cl)C1(Cl)C5(Cl)C24Cl (configuration not stated)	inconclusive: 18.5 µM [inhibitor, single point]	–
CC(C)c1nc(CNC(=O)CC2C(=O)NCCN2Cc2cccc(F)c2F)cs1 (configuration not stated)	inconclusive: 18.5 µM [inhibitor, single point]	–
CC(C)COc1ccc(-c2nnn(CC(=O)N3CCCC3)n2)cc1	–	inactive: 32.7%
OC(COc1ccc(F)cc1Cl)CN1CCC(Cc2ccccc2)CC1 (configuration not stated)	inconclusive: 9.28 µM [inhibitor, partial curve, poor fit]	–
CC(C)(CO)CNC(=O)CCc1nnc(CCCc2ccccc2)o1	inconclusive: 6.57 µM [inhibitor, single point]	–
COc1ccc(-n2c(-c3ccc(Br)cc3)c[n+]3c2CCCCC3)cc1	active: 0.586 µM	–
COc1ccc(C(=O)N=c2c(C#N)cc3c(=O)n4cccc(C)c4nc3n2Cc2ccco2)cc1	inconclusive: 8.28 µM [inhibitor, single point]	–
O=C(C1CC1)N1CCN=C1SCc1ccccc1Cl	inconclusive: 13.1 µM [inhibitor, single point]	–
CCCOc1ccc(Cn2ccnc2)cc1[N+](=O)[O-]	–	inactive: 0%
COc1ccccc1N1CCN(CC(O)COc2cccc3ccccc23)CC1 (configuration not stated)	inconclusive: 13.5 µM [inhibitor, single point] and inconclusive: 11.7 µM [inhibitor, single point]	–
CC1CCCN(C(=O)CNC(=O)Cn2ccc3ccccc3c2=O)C1 (configuration not stated)	inconclusive: 14.7 µM [inhibitor, partial curve, poor fit]	–
COc1ccc(Nc2cc(C)nc(-n3nc(C)cc3C)n2)cc1	inconclusive: 1.17 µM [inhibitor, partial curve, poor fit]	–
Cc1cccc(C)c1OCC(=O)NNC(=S)NC(=O)C1CC1	active: 10.4 µM	–
CCOC(=O)c1c(C)[nH]c(C(=O)OCc2c(C)noc2C)c1C	inconclusive: 16.5 µM [inhibitor, single point]	–
O=C(COc1ccc(/C=N/NS(=O)(=O)c2ccccc2)cc1)Nc1cccc(Cl)c1	inconclusive: 0.208 µM [inhibitor, full curve, poor fit]	–
N#Cc1cccc(-c2csc(N3CCC(C(N)=O)CC3)n2)c1	–	inactive: 2.48%
Cc1cc(NCc2ccccn2)n2c(nc3ccccc32)c1C#N	–	inactive: 89.3%
CCn1cc(/C=N\NC(=O)C2(C)CC2(Cl)Cl)c(C)n1 (configuration not stated)	–	inactive: -13%
CC12CCC(C(=O)NCCc3ccccc3)(OC1=O)C2(C)C (configuration not stated)	inconclusive: 4.15 µM [inhibitor, partial curve, poor fit]	–
OC1(C#CCN2CCCC2)c2ccccc2-c2ccccc21	inconclusive: 18.5 µM [inhibitor, single point]	–
COc1cccc(-n2nc3c(=O)n(Cc4ccccc4Cl)nc(C)c3c2C)c1	inconclusive: 0.928 µM [inhibitor, partial curve, poor fit]	–
COc1cccc(NC(=O)COC(=O)c2ccc(C)c(S(=O)(=O)N3CCCCC3)c2)c1	–	inactive: -2.49%

SMILES	Potency	activity change, negative = inhibition
CN1CCCC(CC2c3ccccc3Sc3ccccc32)C1 (configuration not stated)	inconclusive: 14.7 µM [inhibitor, partial curve, poor fit]	–
Cc1cc2occ(CC(=O)NNC(=O)c3ccccc3F)c2cc1C	inconclusive: 10.4 µM [inhibitor, partial curve, poor fit]	–
O=C(Nc1ccc2c(c1)OCO2)C1CCN(S(=O)(=O)Cc2ccccc2)CC1	inconclusive: 2.94 µM [inhibitor, full curve]	–
COc1ccc(/C=C2/SC(=S)N(CCCC(=O)N3CCN(C)CC3)C2=O)cc1	–	inactive: 12.9%
O=C(NC1CCCCCCC1)c1ccc(S(=O)(=O)N2CCCC2)cc1	inconclusive: 4.15 µM [inhibitor, partial curve, poor fit]	–
Cc1[nH]nc2c1C(c1cccnc1)N(c1ccc(Br)cc1)C2=O (configuration not stated)	inconclusive: 18.5 µM [inhibitor, single point]	–
COc1cc(/C=N/Nc2ccccc2C(F)(F)F)ccc1O	inconclusive: 18.5 µM [inhibitor, single point]	–
O=C(/C=C/c1ccc(O)c([N+](=O)[O-])c1)c1ccc2ccccc2c1	inconclusive: 18.5 µM [inhibitor, single point]	–
COC(=O)c1cn(NC(=O)c2ccc([N+](=O)[O-])c(C)c2)c(=O)c2ccccc12	inconclusive: 13.1 µM [inhibitor, single point]	–
CCOC(=O)c1ccc(NC(=O)c2cc3ccccc3o2)cc1	inconclusive: 0.0657 µM [inhibitor, full curve, poor fit]	–
Cc1ccc(S(=O)(=O)N2CCN(C(=O)COC(=O)CCCOc3ccccc3)CC2)c(C)c1	inconclusive: 0.104 µM [inhibitor, full curve, poor fit]	–
CCOC(=O)c1[nH]c2ccccc2c1NC(=O)c1ccc(S(=O)(=O)N2CCCC2)cc1	active: 11.7 µM	–
CS(=O)(=O)c1ccc2nc(NC(=O)c3ccc(N4C(=O)CCC4=O)cc3)sc2c1	–	inactive: 16.5%
COc1c(OC(C)=O)ccc(/C=C/c2ccc3cccc(OCc4ccccc4)c3n2)c1[N+](=O)[O-]	inconclusive: 18.5 µM [inhibitor, single point]	–
COc1ccc(N(CC(=O)NCCC2=CCCCC2)S(=O)(=O)c2ccc(C)cc2)cc1OC	inconclusive: 18.5 µM [inhibitor, single point]	–
COCCn1c(=S)[nH]c2cc(C(=O)N3CCc4ccccc43)ccc2c1=O	inconclusive: 18.5 µM [inhibitor, partial curve, poor fit]	–
CCC(=O)NC(NC(=S)Nc1ccc(S(N)(=O)=O)cc1)C(Cl)(Cl)Cl (configuration not stated)	active: 2.08 µM	–
Cc1c(Cl)cccc1NC(=O)CSc1nncn1-c1cccnc1	inconclusive: 4.65 µM [inhibitor, partial curve, poor fit]	–
Cc1c(C(=O)O)oc2ccc(S(=O)(=O)N3CC(C)CC(C)C3)cc12 (configuration not stated)	–	inactive: 35.9%
Cc1cc(=O)oc2c(C)c(OC(C)C(=O)NCc3ccccn3)ccc12 (configuration not stated)	inconclusive: 11.7 µM [inhibitor, single point]	–
CCOC(=O)Cc1c[nH]c(=S)[nH]c1=O	–	inactive: 65.1%
CCC(=O)Nc1nnc(S(=O)(=O)N(CC(C)C)c2ccccc2)s1	inconclusive: 9.28 µM [inhibitor, single point]	–
COCCn1c(SCC#N)nnc1-c1ccc(OC)cc1	inconclusive: 0.828 µM [inhibitor, full curve, poor fit]	–

SMILES	Potency	activity change, negative = inhibition
COc1ccc(C(=O)NC(=S)Nc2ccc(S(=O)(=O)Nc3cc(C)on3)cc2)cc1OC	–	inactive: 9.74%
COc1ccc(C2Nc3ccccc3C(=O)N2Cc2ccccc2)cc1COc1ccc(Cl)cc1Cl (configuration not stated)	–	inactive: 5.58%
Cc1nc2ccccc2c(=O)n1-c1ccc(NS(=O)(=O)c2ccc(F)cc2F)cc1	–	inactive: 17.4%
O=C(CCNc1cc(Cl)cc(Cl)c1)c1ccco1	inconclusive: 18.5 µM [inhibitor, single point]	–
O=C(c1ccc(Cl)c(S(=O)(=O)N2CCCC2)c1)N1CCN(c2ccc(F)cc2)CC1	inconclusive: 5.86 µM [inhibitor, partial curve]	–
COCCn1c(=O)c2c(nc3n2CC(C)CN3Cc2ccccc2)n(C)c1=O (configuration not stated)	inconclusive: 14.7 µM [inhibitor, partial curve, poor fit]	–
COc1ccc(CCNC(=O)c2ccc(OCc3c(C)noc3C)cc2)cc1OC	inconclusive: 5.86 µM [inhibitor, partial curve, poor fit]	–
O=c1nc2ccc(Cl)cn2c2ccc(S(=O)(=O)N3CCOCC3)cc12	–	inactive: -2.68%
CCOC(=O)C1(Cc2ccc(OC)cc2)CCN(C(=O)c2ccc3[nH]ccc3c2)CC1	inconclusive: 10.4 µM [inhibitor, single point]	–
COc1cc(NC(=O)CN(C)S(=O)(=O)c2ccc3c(c2)CC(C)N3C(C)=O)cc(OC)c1 (configuration not stated)	inconclusive: 0.928 µM [inhibitor, full curve, poor fit]	–
O=C1c2cccc(Sc3ccccc3)c2C(=O)c2c(Sc3ccccc3)cccc21	inconclusive: 20.8 µM [inhibitor, partial curve, poor fit]	–
COC(=O)CCSC(=S)N1CCOCC1	–	inactive: 8.95%
CCN(CC(=O)NCc1cccs1)C(=O)c1ccc([N+](=O)[O-])o1	inconclusive: 10.4 µM [inhibitor, single point]	–
S=C(Nc1ccccc1)Nc1ccccc1-n1cccc1	inconclusive: 18.5 µM [inhibitor, single point]	–
COc1nc(N2CCCC2)nc(-n2nnc(C(C)=O)c2C)n1	inconclusive: 18.5 µM [inhibitor, partial curve, poor fit]	–
CS(=O)(=O)c1nc(S(=O)(=O)c2ccc(Cl)cc2)c(NCc2ccccn2)s1	–	inactive: 31.8%
CCN1CCN(c2ccc(S(=O)(=O)N3CCCCC3)cc2NC(=O)c2ccc([N+](=O)[O-])o2)CC1	active: 8.28 µM	–
CCC(C)NS(=O)(=O)c1ccc(S(=O)(=O)N(CC(=O)Nc2ccccc2)Cc2ccco2)cc1 (configuration not stated)	inconclusive: 11.7 µM [inhibitor, single point]	–
COC(=O)c1ccc(NC(=O)CN2CCN(c3ccccn3)CC2)cc1	–	inactive: -14.1%
CCN1C(=O)NC(c2ccccc2)C1=O (configuration not stated)	–	inactive: 0%
CCNC(=S)N1CCN(C(c2ccccc2)c2ccccc2)CC1	active: 8.28 µM	–
